Source: patent US20240287184A1
No constants are given. Whether binding was seen depends on the method and setting. A result given as binding can be weak or reduced; the word gives no strength.

Assays:
[1] = molecular target: monkey PD1 expressed on the surface of CHO cells (CHO-cynoPD1) (monkey); assay: flow cytometry on CHO-cynoPD1 cells, compared with PD1-112-C2
[2] = molecular target: monkey PD1 expressed on the surface of CHO cells (CHO-cynoPD1) (monkey); assay: flow cytometry on CHO-cynoPD1 cells

Binder	binding [1]	binding [2]
anti-PD-1 humanized antibody c22 (antibody, V domains shown) VH: QVQLVQSGAEVKKPGASVKVSCKASGYTFTTYYMYWVRQAPGQGLEWMGGINPSNGGTNFNEKFKSRVTMTVDKSTSTAYMELSSLRSEDTAVYYCTRRDSNYDGGFDYWGQGTTVTVSS VL: DIQLTQSPSSLSASVGDRATITCRASKSVSTSGYSYMHWYQQKPGKAPKLLIYLAYHLESGVPSRFSGSGSGTDFTLTISSVQPEDFATYYCQHSWELPITFGQGTKLEIKR	binds	binds
anti-PD-1 humanized antibody c43 (antibody, V domains shown) VH: QVQLVQSGAEVKKPGASVKVSCKASGYTFTTYYMYWVRQAPGQGLEWIGGINPSNGGTNYAEKFKGRVTLTVDTSTSTAYMELSSLRSEDTAVYYCTRRDSNYDGGFDYWGQGTTVTVSS VL: DIQMTQSPSSLSASVGDRVTITCRASKSVSTSGYSYMHWYQQKPGKAPKLLIYLAYHLESGVPSRFSGSGSGTDFTLTISSLQPEDFATYYCQHSWELPITFGQGTKLEIKR	binds	binds

The next lines start with the values.

binding [1]	binding [2]	Binder
binds	binds	anti-PD-1 humanized antibody c53 (antibody, V domains shown) VH: QVQLVQSGAEVKKPGASVKVSCKASGYTFTTYYMYWVRQAPGQGLEWMGGINPSNGGTNYAQKFQGRATMTVDTSTSTAYMELSSLRSEDTAVYYCTRRDSNYDGGFDYWGQGTTVTVSS VL: DIQMTQSPSSLSASVGDRVTITCRASKSVSTSGYSYMHWYQQKPGKAPKLLIYLAYHLESGVPSRFSGSGSGTDFTLTISSLQPEDFATYYCQHSWELPITFGQGTKLEIKR
	binds	anti-PD-1 mouse monoclonal antibody PD-1-112-C2 (antibody, V domains shown) VH: QVQLQQPGAELVKPGASVKLSCKASGYTFTTYYMYWVKQRPGQGLEWIGGINPSNGGTNFNEKFKSKATLTVDKSSSTAYMQLSSLTSEDSAVYYCTRRDSNYDGGFDYWGQGTTLTVSS VL: DIVLTQSPASLAVSLGQRATISCRASKSVSTSGYSYMHWYQQKPGQPPKLLIYLAYHLESGVPARFSGSGSGTDFTLNIHPVEEEDAATYYCQHSWELPITFGSGTKLEIKR
